Source: publication PMC11898276
These are yes or no findings as the source states them, for the method shown. In cells and extracts the contact can be indirect. Some results given as binding are weak or reduced against the parent protein; the word gives no strength. For some of these results: Sequences can lack the tags named with a protein.

Chains of the proteins cited; added tags and fusions are not shown. Residues count along the entry.
UniProt P11142: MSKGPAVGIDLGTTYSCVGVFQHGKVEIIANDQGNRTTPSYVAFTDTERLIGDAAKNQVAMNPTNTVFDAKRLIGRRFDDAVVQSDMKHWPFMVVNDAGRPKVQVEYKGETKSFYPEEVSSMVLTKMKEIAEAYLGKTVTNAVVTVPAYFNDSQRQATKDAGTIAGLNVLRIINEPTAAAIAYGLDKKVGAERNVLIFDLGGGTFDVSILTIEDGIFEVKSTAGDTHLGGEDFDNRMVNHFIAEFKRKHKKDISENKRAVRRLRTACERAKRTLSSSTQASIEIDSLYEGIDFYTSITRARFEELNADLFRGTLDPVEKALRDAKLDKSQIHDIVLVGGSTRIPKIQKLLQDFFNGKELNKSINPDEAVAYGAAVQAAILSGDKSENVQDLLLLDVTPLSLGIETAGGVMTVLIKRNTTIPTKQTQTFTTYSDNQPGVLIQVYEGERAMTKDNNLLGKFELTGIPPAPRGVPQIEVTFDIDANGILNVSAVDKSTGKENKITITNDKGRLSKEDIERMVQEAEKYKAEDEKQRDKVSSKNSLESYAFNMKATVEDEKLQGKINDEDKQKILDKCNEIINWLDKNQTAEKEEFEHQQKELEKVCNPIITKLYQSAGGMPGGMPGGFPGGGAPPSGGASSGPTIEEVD
UniProt P13473, residues 29-410: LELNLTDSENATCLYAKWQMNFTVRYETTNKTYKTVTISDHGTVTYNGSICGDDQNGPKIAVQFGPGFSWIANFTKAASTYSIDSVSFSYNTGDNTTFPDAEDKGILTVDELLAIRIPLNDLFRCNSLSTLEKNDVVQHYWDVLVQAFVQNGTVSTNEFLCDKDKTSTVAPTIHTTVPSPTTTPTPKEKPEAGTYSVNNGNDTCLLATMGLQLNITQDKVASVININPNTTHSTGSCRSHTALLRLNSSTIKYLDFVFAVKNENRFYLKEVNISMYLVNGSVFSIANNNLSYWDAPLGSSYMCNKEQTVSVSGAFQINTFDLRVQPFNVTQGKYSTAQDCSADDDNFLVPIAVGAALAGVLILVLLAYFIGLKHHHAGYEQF
UniProt Q86WV6: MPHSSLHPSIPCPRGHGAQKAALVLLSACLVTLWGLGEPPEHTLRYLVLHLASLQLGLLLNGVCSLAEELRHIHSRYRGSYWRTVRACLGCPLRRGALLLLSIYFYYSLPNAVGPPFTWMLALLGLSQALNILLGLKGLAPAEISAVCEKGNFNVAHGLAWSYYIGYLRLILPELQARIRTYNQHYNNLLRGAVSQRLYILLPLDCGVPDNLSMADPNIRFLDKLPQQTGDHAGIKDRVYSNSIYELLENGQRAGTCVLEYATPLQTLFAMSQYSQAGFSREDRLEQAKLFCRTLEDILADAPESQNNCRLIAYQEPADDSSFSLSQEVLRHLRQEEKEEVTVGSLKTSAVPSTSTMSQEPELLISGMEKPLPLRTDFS

T1: HA-TBK1 WT (human) (UniProt Q9UHD2)
T1 sequence: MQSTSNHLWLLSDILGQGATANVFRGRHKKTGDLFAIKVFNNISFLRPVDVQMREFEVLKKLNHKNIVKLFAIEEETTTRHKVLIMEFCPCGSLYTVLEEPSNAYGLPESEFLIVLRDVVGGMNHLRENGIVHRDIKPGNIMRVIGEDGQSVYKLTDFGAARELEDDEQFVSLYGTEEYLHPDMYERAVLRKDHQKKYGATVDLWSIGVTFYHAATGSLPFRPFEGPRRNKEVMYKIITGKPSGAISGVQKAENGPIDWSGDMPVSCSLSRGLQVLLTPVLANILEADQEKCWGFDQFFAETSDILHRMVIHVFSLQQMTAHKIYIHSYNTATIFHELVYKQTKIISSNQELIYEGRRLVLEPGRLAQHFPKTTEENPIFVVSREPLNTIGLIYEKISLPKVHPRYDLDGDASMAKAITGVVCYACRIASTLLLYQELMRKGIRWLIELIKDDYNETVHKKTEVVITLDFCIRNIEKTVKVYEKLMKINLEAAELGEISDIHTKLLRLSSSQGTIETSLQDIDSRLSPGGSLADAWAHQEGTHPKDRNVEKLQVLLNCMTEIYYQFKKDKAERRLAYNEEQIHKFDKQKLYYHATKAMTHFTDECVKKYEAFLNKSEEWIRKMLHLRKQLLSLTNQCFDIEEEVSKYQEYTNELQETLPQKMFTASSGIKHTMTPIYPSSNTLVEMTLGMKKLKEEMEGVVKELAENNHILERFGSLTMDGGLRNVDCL


Key:
[1] = target: heat shock protein family A member 8 (HSPA8) (UniProt P11142); experiment: co-IP; HSPA8 immunoprecipitated from cell lysate, FLAG-STING detected by blot; lysis buffer 140 mM KCl, 3 mM MgCl2, 1% NP-40, 20 mM HEPES pH 7.4, 1 mM EDTA, 1.5 mM EGTA; antibody overnight at 4 °C, protein G Sepharose
LAMP2A = LAMP2A (UniProt P13473); experiment: co-IP; co-IP of STING or TBK1 with LAMP2A from cell lysate, with and without starvation of the cells; which partner was precipitated is not stated; lysis buffer 140 mM KCl, 1% NP-40, 20 mM HEPES pH 7.4
HA-TBK1 WT (human) = target: T1, HA-TBK1 WT (human); experiment: co-IP; TBK1 (HA-TBK1) immunoprecipitated from cell lysate, HSPA8 detected by blot; lysis buffer 140 mM KCl, 3 mM MgCl2, 1% NP-40, 20 mM HEPES pH 7.4, 1 mM EDTA, 1.5 mM EGTA; antibody overnight at 4 °C, protein G Sepharose

Molecule | binding (LAMP2A) | other results
FLAG-STING WT (from UniProt Q86WV6 1-379) | – | binding [1]: binds
heat shock protein family A member 8 (HSPA8) (from UniProt P11142 1-646) | – | binding (HA-TBK1 WT (human)): binds

More lines, main results first:

binding (LAMP2A) | Molecule | other results
binds | STING (from UniProt Q86WV6 1-379) | –
binds | TBK1 (enzyme, UniProt Q9UHD2 1-729) MQSTSNHLWLLSDILGQGATANVFRGRHKKTGDLFAIKVFNNISFLRPVDVQMREFEVLKKLNHKNIVKLFAIEEETTTRHKVLIMEFCPCGSLYTVLEEPSNAYGLPESEFLIVLRDVVGGMNHLRENGIVHRDIKPGNIMRVIGEDGQSVYKLTDFGAARELEDDEQFVSLYGTEEYLHPDMYERAVLRKDHQKKYGATVDLWSIGVTFYHAATGSLPFRPFEGPRRNKEVMYKIITGKPSGAISGVQKAENGPIDWSGDMPVSCSLSRGLQVLLTPVLANILEADQEKCWGFDQFFAETSDILHRMVIHVFSLQQMTAHKIYIHSYNTATIFHELVYKQTKIISSNQELIYEGRRLVLEPGRLAQHFPKTTEENPIFVVSREPLNTIGLIYEKISLPKVHPRYDLDGDASMAKAITGVVCYACRIASTLLLYQELMRKGIRWLIELIKDDYNETVHKKTEVVITLDFCIRNIEKTVKVYEKLMKINLEAAELGEISDIHTKLLRLSSSQGTIETSLQDIDSRLSPGGSLADAWAHQEGTHPKDRNVEKLQVLLNCMTEIYYQFKKDKAERRLAYNEEQIHKFDKQKLYYHATKAMTHFTDECVKKYEAFLNKSEEWIRKMLHLRKQLLSLTNQCFDIEEEVSKYQEYTNELQETLPQKMFTASSGIKHTMTPIYPSSNTLVEMTLGMKKLKEEMEGVVKELAENNHILERFGSLTMDGGLRNVDCL | –
